Percent effect of library compounds

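Whole-parasite assay of Trypanosoma brucei over 72 hours; the read-out is not stated. Compounds at 30 µM. Direction is inferred from retests: higher values go with stronger inhibition. Values scatter widely below zero; nearly all retest evidence comes from the higher of the two concentrations used. Size under these conditions: about 64,000 compounds, about 940 of them at 50% or above in at least one test.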

Each number is a percent effect as filed. How 0% and 100% were set is not recorded. Most values in the screen are low, and negative values occur. This is an unselected part of the compounds tested.

Compound | effect
Cc1cccnc1CC(C)N(C)Cc1cccs1 (stereo not shown) | -31.76%
CNS(=O)(=O)c1ccc(C(=O)NCCc2ccccn2)cc1 | 16.41%
Cn1c(C(N)=O)ccc1-c1ccccc1 | 12.15%
Cc1nc2c(c(NC3CC3)n1)CCN(C(=O)CCO)CC2.O=C(O)C(F)(F)F | -2.732%
COc1cccc(OCC2CCCN(Cc3ncc[nH]3)C2)c1 (stereo not shown) | -15.53%
CCN(CC)Cc1ccc(C(=O)NC2CCc3cc(Cl)ccc32)o1 (stereo not shown) | -123.8%
COc1ccc(C(=O)N2CCCC3(CCCC(=O)N3C)C2)cc1 (stereo not shown) | -32.5%
Cc1cc(C)n(Cc2cccc(C(=O)NCCN3CCOCC3)c2)n1 | -34.44%
CCC(=O)Nc1cccc(OCC(=O)N(C)Cc2ccon2)c1 | -36.08%
Cc1nsc(NCc2ccc(CS(=O)(=O)NC(C)C)cc2)n1 | -3.529%
CN1CCN(Cc2c(Cl)ccc(O)c2Cl)CC1C(=O)O (stereo not shown) | -54.5%
CCS(=O)(=O)N1CCC2(CC1)CN(c1cccnc1)C(=O)CO2.O=C(O)C(F)(F)F | -92.04%
O=S1(=O)CCC(n2nc(COc3ccccc3)nc2-c2cnccn2)C1 (stereo not shown) | -31.5%
O=C(OCCNc1ncccn1)c1ccc(Cl)s1 | -46.93%
Cc1nc(-c2cncnc2C2CCCNC2)no1.Cl.Cl (stereo not shown) | -20.8%
O=C(O)C(F)(F)F.[H][C@]12CC[C@@]3(N=C(C)N(CC4CC4)C3=O)[C@@]1([H])CN(Cc1ccccc1)C2 | -40.35%
[H][C@]12CC[C@]([H])(CN(c3cc(N)nc(SC)n3)C1)N(CC1CC1)C2=O | -20.02%
CCCC1(CO)CCCN(c2ncnc3c2c(C)nn3C)C1 (stereo not shown) | 49.56%
Cc1ccc(-c2noc(CNCC3CN(C)CCO3)n2)cc1F (stereo not shown) | 11.72%
N#Cc1c(Cl)nsc1NCc1ccc(N2CCC(CO)CC2)cc1 | -28.26%
OC[C@@H]1CCCN1c1ccc(-c2nc(CCc3ccccc3)no2)cn1 | -12.25%
CC(C)CCn1cc(C(=O)NC2CCS(=O)(=O)C2)c2ccccc2c1=O (stereo not shown) | -11.14%
Cc1csc(N2CCN(C(=O)Cc3ccsc3)CC2)n1 | -29.91%
CCc1c(C(=O)N2CCN(CC(N)=O)CC2)cnn1C(C)(C)C | 9.269%
Cc1cccc(NC(=O)C2CCCN2C(=O)c2ccco2)c1C (stereo not shown) | -26.91%
CC(C)Cc1cc(C(=O)O)nc2[nH]c(=O)[nH]c(=O)c12 | 2.205%
Cn1ccnc1CN1CCCN(C(=O)COC2CCCC2)CC1 | 5.638%
Cc1cc(C(=O)N2CCn3c(COCC4CCCC4)cnc3C2C)on1 (stereo not shown) | 19.99%
CCc1ccc(C(=O)N2CCCN(Cc3csc(CC)n3)CC2)o1 | 30.09%
COCCNc1cc(C)nn2cnnc12 | -18.64%
CCOc1cc(C)nc(N2CCN(C(=O)c3ccnn3C)CC2)n1 | 22.08%
Cl.Cl.O=C(NCc1cncc2c1CCN(Cc1cccs1)C2)C1CC1 | -12.18%
Cc1nnc(-c2ccc(C(=O)Nc3ccnc(N(C)C)n3)cc2)o1 | 4.534%
CCn1c(CC2CCN(C(=O)C3COCCO3)CC2)nn(C)c1=O (stereo not shown) | -38.46%
OCc1cccc(CNCc2cccc3c2OCCO3)c1 | -44.15%
Cc1ccc(CN2CCc3ncnc(OC(C)C)c3CC2)s1.O=C(O)C(F)(F)F | 26.78%
COc1ccc(Br)cc1CCC(=O)N1CCCC(O)C1 (stereo not shown) | -4.171%
Cc1n[nH]c(C2CN(C(=O)c3cc(C4CC4)[nH]n3)CCO2)n1 (stereo not shown) | -14.07%
Cc1ccc(CN2CCOC(c3cnccn3)C2)s1 (stereo not shown) | -11.78%
CCCN1CCN(C(=O)CCn2cccc2)CC1 | -13.38%
CC(=O)N1CCC(NC(=O)CN2CCCc3c(C)ccc(F)c32)CC1 | -9.438%
CC(C)n1nc2c(cc1=O)CN(CCCN1CCCC1=O)CC2 | -25.43%
O=C(CN1CCCCC1Cn1cncn1)NCCOc1ccccc1 (stereo not shown) | -11.45%
Cc1cccc(CN2CCC(c3csc4nccn34)CC2)n1.O=CO | 10.38%
CN1CCC(c2cccc(NCc3ccncc3)n2)CC1 | -7.712%
c1cncc(CC2CN(c3cccnc3)CCO2)c1 (stereo not shown) | -16.07%
Cc1ccc2c(n1)N(CCN(C)C)CCN(C(=O)c1cscn1)C2.O=C(O)C(F)(F)F.O=C(O)C(F)(F)F | -17.46%
CC(C)C(O)CNC(=O)Nc1cnn(C(C)C)c1 (stereo not shown) | 6.3%
CCc1ccc(-c2cn3c(C(=O)NCC(C)C(=O)NC)csc3n2)cc1 (stereo not shown) | -21.86%
Cc1cnc(N(C)CCCc2cnn(C)c2)nc1N(C)C | -27.52%
CCOCc1nn(C)c2c1CN(Cc1cccs1)CC2.O=C(O)C(F)(F)F | -83.31%
CNC(=O)[C@@H]1CN(C(=O)CCOC)C[C@H]1c1ccnc(N2CCCC2)n1.Cl | 19.11%
COC(=O)c1cccc(C(=O)N2CCN(c3ccc(Cl)cc3)CC2)n1 | -3.827%
Cc1ccc2nccc(C(=O)N3CCOC(CCN(C)C)C3)c2c1 (stereo not shown) | -24.12%
CCOCc1nc(CSc2ccncc2)n(C2CCN(C)CC2)n1 | -12.31%
COc1ccc(-n2nnnc2C2(NCc3ccco3)CCCCC2)cc1 | -16.11%
O=C1c2cnc(N3CCOCC3)nc2CN1Cc1cccc(F)c1 | -25.27%
Cc1ccc(C(=O)N2CCCC(N)CC2)cc1N1CCNC1=O (stereo not shown) | -28.86%
O=S(=O)(c1ccc(F)cc1F)N1CCCCC1c1nnc2n1CCCC2 (stereo not shown) | -8.8%
CCCOC1CCCN(Cc2nc(-c3cccs3)oc2C)C1 (stereo not shown) | 15.18%
O=C(C1CC1)N1C[C@@H](F)[C@@H](OCc2nc3ccccc3[nH]2)C1 | -47.98%
CCN(C(=O)C(C)S(=O)(=O)Cc1nc(C)no1)c1ccccc1 (stereo not shown) | -21.53%
Cc1nccn1CCCN1CCC2(CCC(=O)N(CC3CC3)C2)CC1 | -32.02%
Cc1nc(C)c(C(C)NCc2c(C)nn(CC(C)C)c2N(C)C)s1 (stereo not shown) | 46.19%
Cc1ccnc(N2CCC(=O)N(Cc3ccc(F)cc3)C(C(C)C)C2)n1 (stereo not shown) | -39.25%
Cc1cnc(NCc2csc(C(C)C)n2)nc1-c1cnn(C)c1 | 9.245%
CCn1nnc2c1C(COCCN(C)C)CN(Cc1ccc(C)s1)C2.O=C(O)C(F)(F)F.O=C(O)C(F)(F)F (stereo not shown) | -26.69%
OC1CCN(c2ccnc(NCCN3CCc4ccccc4C3)n2)C1 (stereo not shown) | -6.579%
[H][C@@]12COC[C@]1(COc1ccc(C#N)cn1)CN(Cc1cnn(C)c1)C2 | -7.601%
COCC(=O)N1CCCC(c2nc(N(C)C)ncc2-c2ccccc2)C1 (stereo not shown) | -5.17%
CN(C)S(=O)(=O)c1ccc(CN2CCC(c3ccccc3)C2)o1 (stereo not shown) | -93.74%
O=C(O)C(F)(F)F.[H][C@@]12C[C@H](C(=O)NC)[C@@]([H])(CN(Cc3ccc(OC)cc3)C1)O2 | -9.083%
O=C(NCc1nncn1-c1ccccc1)C1CC(=O)N(CC2CC2)C1 (stereo not shown) | -17.36%

The last 5 entries again:

| Compound | effect |
|---|---|
| `[H][C@@]12COC[C@]1(COc1ccc(C#N)cn1)CN(Cc1cnn(C)c1)C2` | -7.601% |
| `COCC(=O)N1CCCC(c2nc(N(C)C)ncc2-c2ccccc2)C1` (stereo not shown) | -5.17% |
| `CN(C)S(=O)(=O)c1ccc(CN2CCC(c3ccccc3)C2)o1` (stereo not shown) | -93.74% |
| `O=C(O)C(F)(F)F.[H][C@@]12C[C@H](C(=O)NC)[C@@]([H])(CN(Cc3ccc(OC)cc3)C1)O2` | -9.083% |
| `O=C(NCc1nncn1-c1ccccc1)C1CC(=O)N(CC2CC2)C1` (stereo not shown) | -17.36% |

From ChEMBL document CHEMBL3988442, “University of Dundee, Small-Polar-MMV Screening Library” (2021).